Experimental data reported in article PMC8533325.
Results are given in words; binding and its absence hold for the method and conditions named. In cells and extracts the contact can be indirect. A result given as binding can be weak or reduced; the word gives no strength. Tags and fused reporters may be left off the sequences shown.

Sequences of proteins named here, by UniProt entry; tags and fusion partners are left off. A change or cut given only in a name is not applied to a line headed by its entry.
UniProt Q9H668: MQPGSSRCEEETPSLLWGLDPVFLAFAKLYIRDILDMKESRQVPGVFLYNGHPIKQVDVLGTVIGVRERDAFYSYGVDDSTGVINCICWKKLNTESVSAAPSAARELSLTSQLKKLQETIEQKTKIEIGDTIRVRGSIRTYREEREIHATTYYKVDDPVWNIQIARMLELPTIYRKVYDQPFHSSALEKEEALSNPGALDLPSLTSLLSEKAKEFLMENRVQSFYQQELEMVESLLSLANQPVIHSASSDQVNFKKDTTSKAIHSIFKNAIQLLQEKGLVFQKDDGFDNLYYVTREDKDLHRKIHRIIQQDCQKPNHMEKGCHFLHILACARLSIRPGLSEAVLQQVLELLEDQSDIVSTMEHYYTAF
UniProt P09884: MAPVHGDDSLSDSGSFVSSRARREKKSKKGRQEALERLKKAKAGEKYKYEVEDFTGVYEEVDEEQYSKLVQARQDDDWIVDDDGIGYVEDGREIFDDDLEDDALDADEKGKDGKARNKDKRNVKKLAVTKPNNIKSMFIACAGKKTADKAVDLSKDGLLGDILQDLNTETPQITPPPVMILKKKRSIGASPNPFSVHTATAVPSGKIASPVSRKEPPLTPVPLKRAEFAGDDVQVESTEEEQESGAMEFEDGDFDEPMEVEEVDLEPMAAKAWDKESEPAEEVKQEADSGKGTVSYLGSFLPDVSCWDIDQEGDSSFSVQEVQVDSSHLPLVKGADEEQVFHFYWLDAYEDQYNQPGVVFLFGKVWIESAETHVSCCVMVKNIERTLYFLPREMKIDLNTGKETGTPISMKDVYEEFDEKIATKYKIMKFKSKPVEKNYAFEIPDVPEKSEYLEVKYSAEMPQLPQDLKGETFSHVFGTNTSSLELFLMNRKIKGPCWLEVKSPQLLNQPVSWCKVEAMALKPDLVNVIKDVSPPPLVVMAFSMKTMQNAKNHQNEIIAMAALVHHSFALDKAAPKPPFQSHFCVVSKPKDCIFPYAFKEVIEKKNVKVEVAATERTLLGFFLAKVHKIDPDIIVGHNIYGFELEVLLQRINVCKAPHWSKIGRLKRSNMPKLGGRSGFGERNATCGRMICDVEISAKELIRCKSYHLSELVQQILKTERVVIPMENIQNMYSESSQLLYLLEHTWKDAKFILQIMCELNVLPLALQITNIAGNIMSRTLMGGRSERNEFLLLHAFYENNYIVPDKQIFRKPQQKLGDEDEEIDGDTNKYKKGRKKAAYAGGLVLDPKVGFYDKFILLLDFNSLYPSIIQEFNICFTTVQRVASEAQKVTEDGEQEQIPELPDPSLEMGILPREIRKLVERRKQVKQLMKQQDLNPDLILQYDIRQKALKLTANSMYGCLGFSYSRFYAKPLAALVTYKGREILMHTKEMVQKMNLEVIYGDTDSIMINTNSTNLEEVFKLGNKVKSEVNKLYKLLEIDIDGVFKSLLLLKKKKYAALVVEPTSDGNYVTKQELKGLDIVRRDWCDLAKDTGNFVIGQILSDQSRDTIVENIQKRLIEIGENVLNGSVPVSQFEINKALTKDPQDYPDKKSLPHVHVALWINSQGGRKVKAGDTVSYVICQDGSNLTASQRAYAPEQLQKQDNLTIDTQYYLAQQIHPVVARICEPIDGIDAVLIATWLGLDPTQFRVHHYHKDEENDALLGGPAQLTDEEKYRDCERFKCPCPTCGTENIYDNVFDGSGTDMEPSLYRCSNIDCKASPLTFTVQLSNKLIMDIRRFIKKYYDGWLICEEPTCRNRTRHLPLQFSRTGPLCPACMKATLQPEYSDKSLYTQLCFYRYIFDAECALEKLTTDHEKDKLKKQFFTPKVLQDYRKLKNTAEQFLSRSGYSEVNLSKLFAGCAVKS

B1: HA-TEN1 (protein, UniProt Q86WV5 1-123)
chain: MMLPKPGTYYLPWEVSAGQVPDGSTLRTFGRLCLYDMIQSRVTLMAQHGSDQHQVLVCTKLVEPFHAQVGSLYIVLGELQHQQDRGSVVKARVLTCVEGMNLPLLEQAIREQRLYKQERGGSQ
B2: Flag-CTC1 (protein, UniProt Q2NKJ3 1-1217)
chain: MAAGRAQVPSSEQAWLEDAQVFIQKTLCPAVKEPNVQLTPLVIDCVKTVWLSQGRNQGSTLPLSYSFVSVQDLKTHQRLPCCSHLSWSSSAYQAWAQEAGPNGNPLPREQLLLLGTLTDLSADLEQECRNGSLYVRDNTGVLSCELIDLDLSWLGHLFLFPRWSYLPPARWNSSGEGHLELWDAPVPVFPLTISPGPVTPIPVLYPESASCLLRLRNKLRGVQRNLAGSLVRLSALVKSKQKAYFILSLGRSHPAVTHVSIIVQVPAQLVWHRALRPGTAYVLTELRVSKIRGQRQHVWMTSQSSRLLLLKPECVQELELELEGPLLEADPKPLPMPSNSEDKKDPESLVRYSRLLSYSGAVTGVLNEPAGLYELDGQLGLCLAYQQFRGLRRVMRPGVCLQLQDVHLLQSVGGGTRRPVLAPCLRGAVLLQSFSRQKPGAHSSRQAYGASLYEQLVWERQLGLPLYLWATKALEELACKLCPHVLRHHQFLQHSSPGSPSLGLQLLAPTLDLLAPPGSPVRNAHNEILEEPHHCPLQKYTRLQTPSSFPTLATLKEEGQRKAWASFDPKALLPLPEASYLPSCQLNRRLAWSWLCLLPSAFCPAQVLLGVLVASSHKGCLQLRDQSGSLPCLLLAKHSQPLSDPRLIGCLVRAERFQLIVERDVRSSFPSWKELSMPGFIQKQQARVYVQFFLADALILPVPRPCLHSATPSTPQTDPTGPEGPHLGQSRLFLLCHKEALMKRNFCVPPGASPEVPKPALSFYVLGSWLGGTQRKEGTGWGLPEPQGNDDNDQKVHLIFFGSSVRWFEFLHPGQVYRLIAPGPATPMLFEKDGSSCISRRPLELAGCASCLTVQDNWTLELESSQDIQDVLDANKSLPESSLTDLLSDNFTDSLVSFSAEILSRTLCEPLVASLWMKLGNTGAMRRCVKLTVALETAECEFPPHLDVYIEDPHLPPSLGLLPGARVHFSQLEKRVSRSHNVYCCFRSSTYVQVLSFPPETTISIPLPHIYLAELLQGGQSPFQATASCHIVSVFSLQLFWVCAYCTSICRQGKCTRLGSTCPTQTAISQAIIRLLVEDGTAEAVVTCRNHHVAAALGLCPREWASLLDFVQVPGRVVLQFAGPGAQLESSARVDEPMTMFLWTLCTSPSVLRPIVLSFELERKPSKIVPLEPPRLQRFQCGELPFLTHVNPRLRLSCLSIRESEYSSSLGILASSC

What follows are molecules tested against Myc-STN1 ΔIDR (human) (UniProt Q9H668) (assay: co-IP; HEK293T cells co-transfected with Flag-CTC1, HA-TEN1 and WT or mutant Myc-STN1, treated with or without HU (2 mM; 16 h or 24 h); lysis in 0.1% NP-40, 50 mM Tris-HCl pH 7.4, 50 mM NaCl, 2 mM DTT; anti-Myc immunoprecipitation overnight at 4 °C; Western blot).

binding, binds:
POLA1 (from UniProt P09884 1-1462)
B1
B2
